PubChem BioAssay AID652243, Drosophila RNAi Screening Center, 2013
The deposit covers about 24,000 reagents; below is an unselected part of those that have a named target and a result. Over the whole deposit, 246 (1%) were called active. 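Plates not normalised; calls are printed but the firefly/Renilla ratio behind them is not deposited; fold cut for lowering reported inconsistently.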 The raw values are shown without normalisation. A number with no mark means an inactive call. A plus sign joins genes that one reagent is predicted to hit. Reagent sequences are not shown. Not stated in the record: the amount of reagent.

Test: 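Fly genes required for human androgen receptor driven transcription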 (primary screen)
System: Drosophila S2R+ cells
Reagent: long dsRNA against Drosophila genes
Time to read-out: 72 h (48 h, then 24 h hormone)
Treatment: synthetic androgen R1881 at 10 nM for 24 h
Read-out: 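Per-well raw luminescence of the androgen-driven firefly reporter and of the Renilla control, two replicates each, without normalisation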
Reading the numbers: firefly reporter light: higher = more light from androgen-responsive reporter; Renilla control light: higher = more constitutive control signal (cell number, transfection)
Rule for the call: 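Across duplicate plates, a knock-down whose log firefly/Renilla ratio shifted a set fold down or up from the GFP/LacZ control mean was a hit; the downward cut appears as both 1.5 and 3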
Calls: active = hit: reporter lowered or raised; inactive = no hit

| target | dsRNA | firefly reporter light, replicate 1 | firefly reporter light, replicate 2 | Renilla control light, replicate 1 | Renilla control light, replicate 2 |
| --- | --- | --- | --- | --- | --- |
| CG34193 | DRSC38866 | 1.26e6 | 1.12e6 | 2.55e6 | 1.75e6 |
| CG10898 | DRSC14279 | 47831 | 55254 | 3.13e5 | 4.56e5 |
| Neb-cGP | DRSC17991 | 6.30e5 | 5.51e5 | 5.20e6 | 5.03e6 |
| QC (Glutaminyl cyclase) | DRSC09736 | 9.26e5 | 8.61e5 | 2.17e6 | 2.03e6 |
| CG3635 | DRSC03729 | 1.80e5 | 2.03e5 | 1.55e6 | 1.25e6 |
| Dlg5 (Discs large 5) | DRSC02964 | 9.85e5 | 1.00e6 | 1.06e6 | 1.40e6 |
| Dlg5 (Discs large 5) | DRSC27257 | 2.97e5 | 2.26e5 | 5.94e5 | 6.04e5 |
| CG32241 | DRSC08100 | 3.01e5 | 3.22e5 | 3.76e5 | 2.12e5 |
| CG32241 | DRSC21518 | 4.06e5 | 2.81e5 | 1.91e6 | 1.78e6 |
| CG32241 | DRSC25178 | 7.03e5 | 7.30e5 | 7.14e5 | 7.79e5 |
| Hs6st (Heparan sulfate 6-O-sulfotransferase) | DRSC14348 | 3.78e5 | 4.13e5 | 4.49e6 | 4.59e6 |
| Hs6st (Heparan sulfate 6-O-sulfotransferase) | DRSC15182 | 2.59e5 | 1.94e5 | 3.53e6 | 3.41e6 |
| Hs6st (Heparan sulfate 6-O-sulfotransferase) | DRSC15581 | 3.06e5 | 3.04e5 | 2.76e6 | 2.36e6 |
| Hs6st (Heparan sulfate 6-O-sulfotransferase) | DRSC21732 | 6.13e5 | 6.22e5 | 4.13e6 | 5.23e6 |
| Magi | DRSC04247 | 6.22e5 | 5.55e5 | 1.82e6 | 1.91e6 |
| Magi | DRSC04451 | 3.03e5 | 1.63e5 | 1.96e6 | 8.68e5 |
| Magi | DRSC26209 | 3.46e5 | 3.57e5 | 5.88e5 | 6.57e5 |
| CG32473 | DRSC14352 | 83678 | 1.71e5 | 1.52e6 | 3.02e6 |
| CG32473 | DRSC16446 | 1.12e5 | 75249 | 1.04e6 | 8.48e5 |
| sd (scalloped) | DRSC20370 | 3.70e5 | 3.00e5 | 3.84e6 | 2.85e6 |
| sd (scalloped) | DRSC37640 | 8.36e5 | 9.88e5 | 2.01e6 | 1.99e6 |
| CG13055 | DRSC09936 | 1.36e5 | 1.47e5 | 1.80e6 | 1.43e6 |
| CG13055 | DRSC25640 | 7.80e5 | 1.22e6 | 9.34e5 | 8.52e5 |
| CG11698 | DRSC14355 | 4.92e5 | 5.43e5 | 1.71e6 | 3.00e6 |
| dpn (deadpan) | DRSC07605 | 2.18e5 | 2.73e5 | 1.32e6 | 1.03e6 |
| dpn (deadpan) | DRSC28443 | 2.57e5 | 6.44e5 | 4.53e5 | 1.24e6 |
| CG14441 | DRSC24967 | 6.93e5 | 7.00e5 | 9.29e5 | 1.20e6 |
| mRpS28 (mitochondrial ribosomal protein S28) | DRSC06939 | 85392 | 1.72e5 | 1.57e6 | 1.91e6 |
| Ugt37A2 (UDP-glycosyltransferase family 37 member A2) | DRSC15861 | 2.03e5 | 1.70e5 | 2.36e6 | 2.06e6 |
| Ugt37A2 (UDP-glycosyltransferase family 37 member A2) | DRSC29967 | 4.55e5 | 3.56e5 | 1.36e6 | 1.00e6 |
| CG3788 | DRSC04418 | 3.28e5 | 2.89e5 | 2.08e6 | 1.62e6 |
| CG3788 | DRSC24502 | 8.38e5 | 9.14e5 | 1.16e6 | 1.09e6 |
| pps (protein partner of snf) | DRSC16057 | 1.48e5 | 1.51e5 | 2.26e6 | 2.14e6 |
| pps (protein partner of snf) | DRSC23652 | 4.20e5 | 2.78e5 | 5.92e5 | 3.91e5 |
| pps (protein partner of snf) | DRSC26594 | 5.25e5 | 4.42e5 | 5.56e5 | 5.41e5 |
| CG13928 | DRSC08397 | 80224 | 66209 | 4.95e5 | 6.07e5 |
| CG16956 | DRSC02544 | 2.61e5 | 2.79e5 | 1.33e6 | 1.60e6 |
| Mettl5 + CG42374 | DRSC26961 | 4.06e5 | 2.25e5 | 7.69e5 | 5.22e5 |
| CCT4 (Chaperonin containing TCP1 subunit 4) | DRSC02865 | 1.32e5 | 1.82e5 | 1.82e6 | 1.69e6 |
| CCT4 (Chaperonin containing TCP1 subunit 4) | DRSC28909 | 3.42e5 | 4.08e5 | 7.78e5 | 8.48e5 |
